Results taken from publication PMC10506458.
No constants are given. Whether binding was seen depends on the method and setting. In cells and extracts the contact can be indirect. Some binding calls cover weakened binding; strength is not graded here. Where a sequence is shown, tags or fusion partners need not be part of it.

Sequences of proteins named here, by UniProt entry; tags and fusion partners are left off. A change or cut given only in a name is not applied to a line headed by its entry.
UniProt P62258: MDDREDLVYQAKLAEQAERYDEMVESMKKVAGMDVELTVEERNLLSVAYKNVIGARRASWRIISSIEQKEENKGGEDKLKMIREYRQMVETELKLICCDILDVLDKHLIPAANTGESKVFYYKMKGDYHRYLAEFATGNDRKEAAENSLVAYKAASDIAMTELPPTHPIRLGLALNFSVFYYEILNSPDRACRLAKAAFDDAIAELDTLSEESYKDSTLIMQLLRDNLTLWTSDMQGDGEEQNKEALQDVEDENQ

Tests used:
FLAG-RIG-I = biological target: T1, FLAG-RIG-I (UniProt O95786); test: co-IP; anti-FLAG M2 magnetic beads (FLAG-RIG-I as bait), myc-14-3-3ε detected by blot; lysate of cells co-transfected for 24 hours and transfected with poly(I:C) for 6 hours; lysis 1% Triton-X, 150 mM NaCl; washes with 300 mM NaCl
T1 sequence: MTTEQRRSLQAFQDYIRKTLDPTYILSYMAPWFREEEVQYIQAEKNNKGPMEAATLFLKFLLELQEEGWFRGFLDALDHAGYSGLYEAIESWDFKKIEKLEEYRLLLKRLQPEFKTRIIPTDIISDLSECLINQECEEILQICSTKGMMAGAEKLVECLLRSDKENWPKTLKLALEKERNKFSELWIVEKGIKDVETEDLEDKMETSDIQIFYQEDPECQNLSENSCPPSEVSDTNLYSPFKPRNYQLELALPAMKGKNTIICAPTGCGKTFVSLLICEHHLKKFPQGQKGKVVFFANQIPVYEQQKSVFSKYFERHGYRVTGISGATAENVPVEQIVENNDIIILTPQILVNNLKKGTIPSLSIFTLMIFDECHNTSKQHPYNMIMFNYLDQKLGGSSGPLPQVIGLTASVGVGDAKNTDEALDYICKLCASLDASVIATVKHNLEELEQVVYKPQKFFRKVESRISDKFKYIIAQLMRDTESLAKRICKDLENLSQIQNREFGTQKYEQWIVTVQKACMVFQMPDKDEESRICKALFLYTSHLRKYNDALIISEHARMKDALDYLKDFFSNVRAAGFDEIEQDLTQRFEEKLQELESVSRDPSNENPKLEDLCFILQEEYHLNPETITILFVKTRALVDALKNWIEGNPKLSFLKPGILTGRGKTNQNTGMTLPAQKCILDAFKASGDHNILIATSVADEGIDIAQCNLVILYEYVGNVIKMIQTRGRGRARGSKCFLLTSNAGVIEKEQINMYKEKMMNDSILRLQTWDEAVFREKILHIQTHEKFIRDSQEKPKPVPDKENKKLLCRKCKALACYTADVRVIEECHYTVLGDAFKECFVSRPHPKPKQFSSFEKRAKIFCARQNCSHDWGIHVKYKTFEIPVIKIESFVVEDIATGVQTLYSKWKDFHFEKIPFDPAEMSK

myc-3CN 14-3-3ε (human) = myc-3CN 14-3-3ε (human) (UniProt P62258); test: co-IP; anti-c-Myc magnetic beads (myc-14-3-3ε as bait), FLAG-RIG-I detected by blot; lysate of cells co-transfected for 24 hours and transfected with poly(I:C) for 6 hours; lysis 1% Triton-X, 150 mM NaCl; washes with 300 mM NaCl
[1] = biological target: myc-tagged wild type 14-3-3ε (human) (UniProt P62258); test: as above

Molecule | binding (FLAG-RIG-I) | binding (myc-3CN 14-3-3ε (human)) | binding [1]
myc-3CN 14-3-3ε (from UniProt P62258 1-236) (domain or fragment) | no binding | – | –
myc-tagged wild type 14-3-3ε (from UniProt P62258 1-255) | binds | – | –
FLAG-RIG-I (protein, UniProt O95786 1-925) MTTEQRRSLQAFQDYIRKTLDPTYILSYMAPWFREEEVQYIQAEKNNKGPMEAATLFLKFLLELQEEGWFRGFLDALDHAGYSGLYEAIESWDFKKIEKLEEYRLLLKRLQPEFKTRIIPTDIISDLSECLINQECEEILQICSTKGMMAGAEKLVECLLRSDKENWPKTLKLALEKERNKFSELWIVEKGIKDVETEDLEDKMETSDIQIFYQEDPECQNLSENSCPPSEVSDTNLYSPFKPRNYQLELALPAMKGKNTIICAPTGCGKTFVSLLICEHHLKKFPQGQKGKVVFFANQIPVYEQQKSVFSKYFERHGYRVTGISGATAENVPVEQIVENNDIIILTPQILVNNLKKGTIPSLSIFTLMIFDECHNTSKQHPYNMIMFNYLDQKLGGSSGPLPQVIGLTASVGVGDAKNTDEALDYICKLCASLDASVIATVKHNLEELEQVVYKPQKFFRKVESRISDKFKYIIAQLMRDTESLAKRICKDLENLSQIQNREFGTQKYEQWIVTVQKACMVFQMPDKDEESRICKALFLYTSHLRKYNDALIISEHARMKDALDYLKDFFSNVRAAGFDEIEQDLTQRFEEKLQELESVSRDPSNENPKLEDLCFILQEEYHLNPETITILFVKTRALVDALKNWIEGNPKLSFLKPGILTGRGKTNQNTGMTLPAQKCILDAFKASGDHNILIATSVADEGIDIAQCNLVILYEYVGNVIKMIQTRGRGRARGSKCFLLTSNAGVIEKEQINMYKEKMMNDSILRLQTWDEAVFREKILHIQTHEKFIRDSQEKPKPVPDKENKKLLCRKCKALACYTADVRVIEECHYTVLGDAFKECFVSRPHPKPKQFSSFEKRAKIFCARQNCSHDWGIHVKYKTFEIPVIKIESFVVEDIATGVQTLYSKWKDFHFEKIPFDPAEMSK | – | no binding | binds
